PubChem BioAssay AID1508588 | Peter MacCallum Cancer Centre – 2020

- Screen: 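Which gene losses make BRAF-mutant melanoma cells more responsive to vemurafenib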 (primary screen)
- Cell system: human WM266.4 melanoma cells (BRAF V600 mutant)
- Knock-down reagent: siRNA pool against human genes, 40 nM
- Timing: 96 h from transfection to read-out
- Conditions: vemurafenib 300 nM (about IC25), added 48 h after transfection, for 48 h; comparison arm got DMSO vehicle only
- Measurement: 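Ratios to non-targeting siRNA for cell gain, counted as DAPI nuclei after minus before drug and averaged over two replicates, and for absorbance-read medium lactate per cell; both binned into fold-change classes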
- Reading the numbers: cell gain with vemurafenib: higher = more cell gain than with non-targeting siRNA; lactate per cell with vemurafenib: higher = more lactate made per cell
- Active means: 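Enhancement is called by pairing each knock-down's vehicle-arm and drug-arm fold-change classes for viability or glycolysis; which class combinations qualify is not given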
- Calls: active = enhances vemurafenib effect; inactive = no enhancement seen
The deposit covers about 18,000 reagents; shown is an unselected part. Over the whole deposit, 790 (4.4%) got an active call. 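Calls rest on a combination of fold-change classes in drug and vehicle arms, not all shown here.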 Unmarked entries are inactive.

Gene	cell gain with vemurafenib	lactate per cell with vemurafenib
SYAP1	0.92	1.23
KIF15	0.2	3.21
FOXA3	0.88	0.66
MSI1	0.62	0.59
MED18	0.48	1.4
PHGDH	0.86	0.59
JAK2	0.73	1.13
DNAAF6	0.63	0.86
FRAS1	0.32	1.68
CSAD	0.51	1.32
OSGIN1	0.73	0.98
HNRNPUL2	1.06	0.5
GAB1	0.25	0.85
CACNA1C	0.28	2.3
THEMIS2	1.27	0.72
MCOLN1	1.08	0.64
TMEM185A	0.5	1.18
CEACAM5	0.32	1.39
MAS1	0.85	0.9
HOXA7	0.42	1.79
SCIN	0.65	1.14
YRDC	0.04	1.12
NAA25	0.5	0.92
ZMYM3	0.41	1.81
CA11	1.16	1.02
AMER3	0.52	1.34
NFKBIA	0.37	0.86
PHF21B	1.01	0.73
KIF20A	0.07	1.17
NLGN2	0.92	0.6
GDF15	0.37	0.73
TNNI1	0.58	0.53
FLT3	0.43	0.48
KARS1	0.3	0.5
SLC39A5	-0.15	3.37
ORC5	0.84	0.92
ECHDC2	1.05	0.7
AMOTL2	0.65	0.98
NPVF	0.51	0.41
SNAI2	1.02	0.53
HIGD2A	0.64	0.83
RNF214	0.91	0.68
WASHC2C	0.8 (active)	0.32
SLC4A7	0.4	0.39
CCDC162P	0.71	1.04
SPOCK1	0.47	0.76
DYNLT3	1.23	0.74
EPCAM	0.89	0.99
ELP5	0.96	0.31
ABCB5	0.73	0.72
FAM133A	0.53	1.83
ADNP2	-0.05	3.31
MMP24	0.43	1.31
HIF1AN	0.49	0.88
TBPL1	0.57	1.23
SDCCAG8	0.18 (active)	0.14
POP4	0.53	0.3
KCNC3	0.31	1.84
THAP9	0.48	0.67
FABP2	1.01	0.73
ANKRD9	1.11	1.16
SPSB1	0.85	0.49
PCBP2	0.4	1.15
PHEX	0.41 (active)	0.3
OTOP2	0.64	1.03
PPP1R14B	0.9	0.64
MICA	0.68	0.56
FANCI	0.72	1.12
KLC4	0.49	0.64
REV1	0.89	0.38
CIMAP1B	0.22	1.36
DPM3	0.71	1.12
TRIM72	0.53	0.8
CRYGB	0.86	0.84
EBF1	0.94	0.84
ELAC2	0.47	1.1
NR4A2	0.71	0.95
NUP35	0.06 (active)	0.14
SNAPC2	0.62	0.56
ZNF248	0.59	0.96
AIP	0.72	0.45
MRO	0.55	1
ALDH3B1	0.37	0.43
OR12D2	0.82	0.24

Reprinted from above (7 entries):
Gene	cell gain with vemurafenib	lactate per cell with vemurafenib
THAP9	0.48	0.67
FABP2	1.01	0.73
ANKRD9	1.11	1.16
SPSB1	0.85	0.49
PCBP2	0.4	1.15
PHEX	0.41 (active)	0.3
OTOP2	0.64	1.03
